Values from PubChem BioAssay AID504791 (Drosophila RNAi Screening Center, 2011).
Screen: 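Genes of the fly required for silencing by miRNA, siRNA or endo-siRNA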 (primary screen). System: Drosophila S2-derived reporter cells. Reagents: long dsRNA against Drosophila genes, about 150-250 ng dsRNA per well (siRNA assay); about 80-120 ng (miRNA assay). Duration: about 5 days (siRNA assay); about 4 days (miRNA assay). Challenge: copper sulfate induction of reporters: 25 µM (siRNA assay); 200 mM stated (miRNA assay), 1-2 days before reading. Measured: 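Per-well ratio of Renilla over firefly light, expressed relative to that plate's average ratio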. Active means: 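a well was a first-pass pick when its plate-scaled ratio rose above 1.5 (siRNA assay) or 1.6 (miRNA assay), or dropped below 0.6; a gene counted only if two separate dsRNAs agreed on retest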.
The deposit covers about 23,000 reagents; this is a random part of those with a known target gene and a result. Over the whole deposit, 199 (0.86%) were called active. 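Plate-scaled ratios behind the calls are not deposited; printed light signals are raw; many rows marked increased or decreased are still called inactive.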 Names joined by + are all predicted targets of the reagent. No sequences are given here. Not stated in the record: the direction of the score.

no.	gene knocked down	DRSC id	stable siRNA reporter change	miRNA reporter change	stable assay Renilla, run 1 (luminescence)	stable assay firefly, run 1 (luminescence)	Call
1	BomS6	DRSC21676	reporter ratio raised past the hit cutoff		4728	1.39e5	inactive
2	Srrm1	DRSC09835			5750	3.15e5	inactive
3	Gar1	DRSC04441			5891	4.97e5	inactive
4	kri	DRSC10515			6883	4.60e5	inactive
5	okr	DRSC00834			12287	2.39e5	inactive
6	Coprox	DRSC01996			11916	1.49e5	inactive
7	NKCC	DRSC12140	reporter ratio raised past the hit cutoff		16394	4.60e5	inactive
8	NKCC	DRSC12311			6843	3.81e5	inactive
9	CG10147	DRSC09706			5447	3.57e5	inactive
10	Alp4	DRSC14116			6334	3.05e5	inactive
11	CG13369	DRSC18481			6158	3.23e5	inactive
12	beta-Man	DRSC12208			8586	2.89e5	inactive
13	beta-Man	DRSC12209			7328	3.92e5	inactive
14	CG7271	DRSC22561			4471	4.33e5	inactive
15	CG42382	DRSC07671			6802	3.85e5	inactive
16	Atg5	DRSC18112			8218	5.95e5	inactive
17	Sik3	DRSC06505			6242	2.98e5	inactive
18	Sik3	DRSC06771			9096	3.20e5	inactive
19	CG12299	DRSC02158		reporter ratio lowered past the hit cutoff	6494	1.74e6	inactive
20	Cenp-C	DRSC14371			7246	3.89e5	inactive
21	CG31740	DRSC01619			5612	3.45e5	inactive
22	CG5246	DRSC15751			6699	3.68e5	inactive
23	CG2975	DRSC00556			7414	4.46e5	inactive
24	CG17593	DRSC00504			6396	5.45e5	inactive
25	Nmdar2	DRSC18183			6070	4.48e5	inactive
26	Nmdar2	DRSC18511			5703	3.63e5	inactive
27	Nmdar2	DRSC18569			5527	4.55e5	inactive
28	CG8157	DRSC07085			7329	5.01e5	inactive
29	CG8157	DRSC21595			9951	6.24e5	inactive
30	CycY	DRSC02420			29461	4.48e5	inactive
31	Tdg	DRSC17119			6830	2.95e5	inactive
32	Tdg	DRSC17169			5688	3.56e5	inactive
33	CG1840	DRSC19806			7358	4.49e5	inactive
34	Orco	DRSC12358			6764	4.00e5	inactive
35	Obp19a	DRSC20487			5639	3.76e5	inactive
36	Non3	DRSC16359			8170	2.62e5	inactive
37	CngA	DRSC06580			5834	2.83e5	inactive
38	CngA	DRSC07362			6010	3.68e5	inactive
39	CG1307	DRSC12492			7655	4.04e5	inactive
40	CG3434	DRSC10365			7371	4.14e5	inactive
41	CG4332	DRSC19890			7638	4.17e5	inactive
42	CG18508	DRSC18155			6290	3.90e5	inactive
43	CG7882	DRSC04899			5319	2.61e5	inactive
44	CG31093	DRSC15689			6355	3.17e5	inactive
45	COX5B	DRSC02115			6906	5.88e5	inactive
46	5-HT2B	DRSC16360			6771	3.59e5	inactive
47	5-HT2B	DRSC16362			7603	4.59e5	inactive
48	RpL35	DRSC18347			5250	2.47e5	inactive
49	CG8861	DRSC12731			5900	3.58e5	inactive
50	CG8861	DRSC16449			6111	4.58e5	inactive
51	Npc2g	DRSC14296			5743	4.09e5	inactive
52	CG11414	DRSC04110			1.34e5	1.43e6	inactive
53	CG9445	DRSC05006			5907	4.12e5	inactive

Look-ups from above:
Sik3 [DRSC06771], stable assay firefly, run 1 (luminescence) → 3.20e5
CngA [DRSC07362], stable assay firefly, run 1 (luminescence): 3.68e5
Coprox [DRSC01996], Call: inactive
Under “stable assay firefly, run 1 (luminescence)”, CG8157 [DRSC07085] reads 5.01e5
For “stable siRNA reporter change”, NKCC [DRSC12140] reads reporter ratio raised past the hit cutoff
Result for Tdg [DRSC17169] under “stable assay Renilla, run 1 (luminescence)”: 5688

Additional results follow:
no.	gene knocked down	DRSC id	stable siRNA reporter change	miRNA reporter change	stable assay Renilla, run 1 (luminescence)	stable assay firefly, run 1 (luminescence)	Call
54	rl	DRSC07833			5551	3.77e5	inactive
55	rl	DRSC20742			3947	2.40e5	inactive
56	rl	DRSC21814			7687	3.85e5	inactive
57	Obp56h	DRSC06433			6199	3.41e5	inactive
58	CG15194 (retired record)	DRSC19642			5479	4.71e5	inactive
59	CG15194 (retired record)	DRSC19777			5324	4.66e5	inactive
60	Cpr5C	DRSC18340			4403	4.47e5	inactive
61	Cp110	DRSC20630			6932	4.42e5	inactive
62	Cp110	DRSC21716			8458	4.95e5	inactive
63	Vrp1	DRSC04148			10951	1.19e6	inactive
64	Fas1	DRSC16669			7066	5.20e5	inactive
65	GstT2	DRSC06244			5726	2.98e5	inactive
66	Rsph9	DRSC01594			5503	3.10e5	inactive
67	Sox21b	DRSC10025			4116	3.00e5	inactive
68	Sox21b	DRSC10634			5887	2.27e5	inactive
69	Sox21b	DRSC22788			3179	2.44e5	inactive
70	Sox21b	DRSC23005			5067	4.13e5	inactive
71	CG13937	DRSC08406			3931	4.24e5	inactive
72	CG10970	DRSC17772			7147	3.84e5	inactive
73	CG5768	DRSC15870			8394	4.02e5	inactive
74	CG1824	DRSC19796			4504	4.28e5	inactive
75	TrpRS-m	DRSC10848			8364	2.84e5	inactive
76	CG6567 + CG4565	DRSC15599			5855	3.53e5	inactive
77	CG7706	DRSC16295			10005	5.02e5	inactive
78	CG11470	DRSC14313			6546	3.62e5	inactive
79	Sod1	DRSC11286			5551	3.80e5	inactive
80	CG13059	DRSC09942			7994	4.41e5	inactive
81	Tsen2	DRSC01557			5543	3.32e5	inactive
82	fog	DRSC20646			7655	6.13e5	inactive
83	CG10803	DRSC17763			7554	4.50e5	inactive
